Measured values: US20070142392A1, “Uses of rifamycins” (ActivBiotics, Inc., priority 2005, published 2007)
At least one compound was matched to its structure with a doubt left. Some results were stated once for a whole list of compounds, not compound by compound. Some compounds share one range, which may span the group rather than tell each member.

Columns and labels:
[1] = tested on: S. pneumo.; assay: MIC values, S. pneumo. (Tables 1-4); type: cell-based
[2] = tested on: S. aureus; assay: minimal bactericidal concentration in the stationary growth phase (MBCstat); type: cell-based; details: stationary growth phase S. aureus in vitro
Method: FIG. 2A is a schematic illustration showing the peak drug concentration of Compound 86 (1.13 μg/ml) in cage fluid from non-infected animals after single dose of 12.5 mg/kg. […] In this medium, bacterial counts remained stable in the absence of antibacterial agents for >36 hours.
In this medium, bacterial counts remained stable in the absence of antibacterial agents for >36 hours.
The minimal bactericidal concentration in the stationary growth phase (MBCstat) was determined by using overnight bacterial cultures which were centrifuged and resuspended in medium containing 1% glucose supplemented phosphate buffered saline (PBS) pH 7.4 with 4% Muller Hinton Broth (Zimmerli et al., J Antimicrob. Chemother. 33:959-967 (1994)). In this medium, bacterial counts remained stable in the absence of antibacterial agents for >36 hours.

Row | Structure (SMILES) | MIC S. pneumo. [1] | times more effective than levofloxacin (MBCstat) [2] | times more effective than rifampin (MBCstat) [2]
1 | CO[C@H]1/C=C/O[C@@]2(C)Oc3c(C)c(O)c4c(=O)c(c5oc6cc(N7CCN(c8ccccc8)CC7)cc(O)c6nc-5c4c3C2=O)NC(=O)/C(C)=C\C=C\[C@H](C)[C@H](O)[C@@H](C)[C@@H](O)[C@@H](C)[C@H](O)[C@@H]1C [Compound 102] | 0.00 1 μg/mL |  | 
2 | CO[C@H]1/C=C/O[C@@]2(C)Oc3c(C)c(O)c4c(=O)c(c5oc6cc(N7CCN(C)CC7)cc(O)c6nc-5c4c3C2=O)NC(=O)/C(C)=C\C=C\[C@H](C)[C@H](O)[C@@H](C)[C@@H](O)[C@@H](C)[C@H](O)[C@@H]1C [Compound 86] |  | 85-256 times | 8-23 times
